Key:
[1] = test system: anti 25-hydroxy Vitamin D monoclonal antibody labeled with acridinium ester (monoclonal antibody 10H9); experiment: Cross-reactivity in ADVIA Centaur Vitamin D Total assay; type: binding, mouse
Method: Biological sample is added to a reaction cuvette followed by displacement buffer and allowed to react for 4.5 minutes. Monoclonal antibody conjugated to acridinium ester is added and allowed to react for 5.5 minutes to bind 25-hydroxyvitamin D in the sample. […] The reaction cuvette is washed, and acid and base reagents are added to initiate the chemiluminescent reaction. The time-to-result is 18 minutes. An inverse relationship exists between the amount of 25-hydroxyvitamin D in the patient sample and the amount of relative light units (RLUs) detected by the system.
Assay: The ADVIA Centaur Vitamin D Total assay is a one-pass, 18-minute antibody competitive immunoassay that uses an antifluorescein-labeled monoclonal antibody covalently bound to paramagnetic particles (PMPs), one monoclonal antibody labeled with acridinium ester (AE), and a vitamin D analog labeled with fluorescein (FIG. 8). The Vitamin D Total assay requires 20 μL of sample volume for a single determination. The time-to-first-result is 18 minutes and the throughput is 240 tests/hour.
Briefly, the first step of the sequential step hapten/antibody competitive immunoassay using chemiluminescent technology begins with the analyzer dispensing 20 μL of biological sample into a cuvette followed by addition of 200 μl of displacement buffer (50 mM HEPES, 150 mM NaCl, 0.09% sodium azide, pH=7.5) containing 8-anilino-1-naphthalenesulfonic acid ammonium salt (Sigma-aldrich, St. Louis, MO) and ethylene glycol (Sigma-aldrich, St. Louis, MO) and incubation for 4.5 minutes at 37° C. Lite Reagent (50 μL) containing an anti 25-hydroxy Vitamin D monoclonal antibody labeled with acridinium ester (monoclonal antibody 10H9) is added to the mixture and incubated for 5.5 min at 37° C. C22-PEG-BSA-fluorescein conjugate (50 μL) and anti-fluorescein monoclonal antibody coated paramagnetic microparticles (100 μL) are added to the mixture and incubated for 3.75 minutes at 37° C. The fourth step is separation of Solid Phase complex with bound C22-PEG-BSA-fluorescein conjugate and anti 25-hydroxy vitamin D monoclonal antibody labeled with acridinium ester, followed by washing three times to remove any free Lite Reagent. Last is the sequential dispensing of 300 μL each of acid reagent then base reagent to initiate the chemiluminescent reaction. The total incubation time from sample to result is 18 minutes. There is an indirect relationship between the amount of 25-hydroxy vitamin D present in the biological sample and the amount of chemiluminescence quantified as relative light units (RLUs). In the Centaur-based assay, there is an inverse relationship between RLUs emitted by the acridinium ester and the amount of vitamin D because the 25-hydroxyvitamin D released from the carrier protein in the plasma competes with the Vitamin D-BSA-Fluorescein for binding with a limited amount of the acridinium-labeled 10H9 monoclonal antibody. Higher levels of 25(OH)D in the patient sample would lower the amount of the acridinium-MAb-VitD-BSA-Fluorescein complex on the magnetic particles resulting in lower RLUs.
Cross-reactivity: Five vitamin D derivatives were analyzed using the ADVIA Centaur Vitamin D Total assay. The vitamin D derivatives were spiked into a sample containing 27 ng/mL of vitamin D total. Three replicates of the spiked samples were assayed and the vitamin D total concentration determined.

[2] = Interference study in ADVIA Centaur Vitamin D Total assay; conditions: for Bias: vs matched unspiked control
[3] = crossreactant 100 ng/mL spiked, expected (endogenous) vitamin D total 27 ng/mL

**Q.** For C=C1CC[C@@H](O)C/C1=C/C=C1\CCC[C@]2(C)[C@@H]([C@H](C)CCCC(C)(C)O)CC[C@@H]12 [3-epi-25(OH)D3], which “Observed Vitamin D Total” value [1, 3] is on record?
**A.** Its value is 27 ng/mL.

**Q.** With C=C1CC[C@H](O)C/C1=C/C=C1\CCC[C@]2(C)[C@@H]([C@H](C)/C=C/[C@H](C)C(C)(C)O)CC[C@@H]12 [25-(OH)-Vit D2, 25-hydroxyvitamin D2] as the molecule, how does the “Observed Vitamin D Total” value ([1]; crossreactant 30 ng/mL spiked, expected (endogenous) vitamin D total 27 ng/mL) read?
**A.** Its value is 58 ng/mL.

**Q.** Which “Observed Vitamin D Total” value [1, 3] does the source give for C=C1CC[C@H](O)C/C1=C/C=C1\CCC[C@]2(C)[C@@H]([C@H](C)/C=C/[C@H](C)C(C)C)CC[C@@H]12 [Vitamin D2] here?
**A.** The value was 28 ng/mL.

**Q.** With Hemoglobin: endogenous interferent as the molecule, how does the “Vitamin D Total Observed” value ([2]; interferent 500 mg/dL) read?
**A.** Its value is 29.70 ng/mL.

**Q.** What about the Bias ([2]; interferent 500 mg/dL) of the same molecule?
**A.** The Bias was 2.13%.

**Q.** What does the source list for C=CC1=C(C)/C(=C/c2[nH]c(Cc3[nH]c(/C=C4\NC(=O)C(C)=C4C=C)c(C)c3CCC(=O)O)c(CCC(=O)O)c2C)NC1=O [Unconjugated Bilirubin]?
**A.** Vitamin D Total Observed ([2]; interferent 60 mg/dL): 32.67 ng/mL; Bias ([2]; interferent 60 mg/dL): 5.77%

**Q.** Which “Vitamin D Total Observed” value ([2]; interferent 20 mg/dL) does the source give for O=c1[nH]c(=O)c2[nH]c(=O)[nH]c2[nH]1 [Uric Acid] here?
**A.** The value was 33.45 ng/mL.

**Q.** What about the Bias ([2]; interferent 20 mg/dL) of the same molecule?
**A.** The Bias was −5.64%.

**Q.** With C=C1CC[C@H](O)C/C1=C/C=C1\CCC[C@]2(C)[C@@H]([C@H](C)CCCC(C)(C)O)CC[C@@H]12 [25-(OH)-Vit D3, 25-hydroxyvitamin D3] as the molecule, how does the “Observed Vitamin D Total” value ([1]; crossreactant 27 ng/mL, expected (endogenous) vitamin D total 0 ng/mL) read?
**A.** Its value is 27 ng/mL.

**Q.** For C=C1CC[C@H](O)C/C1=C/C=C1\CCC[C@]2(C)[C@@H]([C@H](C)CCCC(C)C)CC[C@@H]12 [Vitamin D3], which “Observed Vitamin D Total” value [1, 3] is on record?
**A.** Its value is 28 ng/mL.

**Q.** Which “Vitamin D Total Observed” value ([2]; interferent 60 mg/dL) does the source give for Conjugated Bilirubin here?
**A.** Its value is 30.67 ng/mL.

**Q.** What about the Bias ([2]; interferent 60 mg/dL) of the same molecule?
**A.** Its Bias is −9.31%.
